Assay results taken from the supplement of paper PMC11659162.
Some of the results follow. The data scatter; read single values as rough.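 The cells are a human neuroglioma line carrying a green fluorescent autophagy reporter.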

How the values were obtained:
H4 GFP-LC3 [1] = test: cell viability (scaled to control) (fraction of control); higher = more viable cells
H4 GFP-LC3 [2] = test: ACBP immunofluorescence intensity (scaled to control) (AU (scaled)); higher = more intracellular ACBP/DBI

Row | Structure (SMILES) | cell viability (H4 GFP-LC3 [1]; 6 h) | cell viability (H4 GFP-LC3 [1]; 24 h) | ACBP immunofluorescence intensity (H4 GFP-LC3 [2]; 6 h) | ACBP immunofluorescence intensity (H4 GFP-LC3 [2]; 24 h)
1 | CCOC(=O)c1ncn2c1CN(C)C(=O)c1cc(F)ccc1-2 (5 µM) | 0.862 | 1.19 | 0.933 | 0.498
2 | COCCCC/C(=N\OCCN)c1ccc(C(F)(F)F)cc1 (5 µM) | 1.15 | 0.843 | 0.517 | 0.533
3 | Brc1c(NC2=NCCN2)ccc2nccnc12 (5 µM) | 0.777 | 0.983 | 0.897 | 0.761
4 | NS(=O)(=O)c1cc2c(cc1Cl)NC(C1CC3C=CC1C3)NS2(=O)=O (centres undefined) (5 µM) | 1.01 | 1.19 | 0.807 | 0.32
5 | O=C(O)C1CCCN(CCC=C(c2ccccc2)c2ccccc2)C1 (centres undefined) (5 µM) | 0.967 | 1.09 | 0.905 | 0.77
6 | O=c1[nH]c2cc(Cl)ccc2c(O)c1-c1cccc(Oc2ccccc2)c1 (5 µM) | 1.07 | 1.12 | 0.662 | 0.766
7 | C=CCN1CCc2nc(N)sc2CC1 (5 µM) | 0.813 | 1.29 | 0.979 | 0.856
8 | COc1ccc(CN(CCN(C)C)c2ccccn2)cc1 (5 µM) | 1.15 | 1.08 | 0.96 | 0.829
9 | NC(N)=NCCC[C@H](NC(=O)[C@@H](N)Cc1ccc(O)cc1)C(=O)O (5 µM) | 1.13 | 1.08 | 0.843 | 0.657
10 | O=C(O)c1cc(O)c2ccc(Cl)cc2n1 (5 µM) | 1.07 | 1.34 | 0.778 | 0.381
11 | CC(N)(C(=O)O)c1ccc(C(=O)O)cc1 (racemic) (5 µM) | 1.02 | 1.34 | 0.909 | 0.5
12 | NC1(C(=O)O)CC1 (5 µM) | 1.19 | 1.18 | 0.661 | 0.678
13 | CNCCC(Oc1ccccc1OC)c1ccccc1 (centres undefined) (5 µM) | 0.821 | 0.854 | 0.896 | 0.568
14 | COc1ccccc1N1CCN(CCCCN2C(=O)CCC2=O)CC1 (5 µM) | 0.885 | 0.722 | 0.854 | 0.56
15 | O=C(OCCN1CCOCC1)C1(c2ccccc2)CCCCC1 (5 µM) | 1.17 | 1.09 | 0.78 | 0.617
16 | Clc1cccc(Cl)c1NC1=NCCN1 (5 µM) | 0.761 | 0.927 | 0.849 | 0.476
17 | C=C1/C(=C\C=C2/CCC[C@]3(C)[C@@H]([C@H](C)CCCC(C)(C)O)CC[C@@H]23)C[C@@H](O)C[C@@H]1O (5 µM) | 1.11 | 1.02 | 0.359 | 0.671
18 | C/C=C1\[C@H]2C=C(C)C[C@]1(N)c1ccc(=O)[nH]c1C2 (5 µM) | 0.843 | 0.9 | 0.985 | 0.473
19 | Cc1cc2c(OCC(CNC(C)(C)C)OC(=O)c3ccccc3)cccc2[nH]1 (centres undefined) (5 µM) | 0.704 | 0.998 | 0.877 | 0.531
20 | COc1cccc(CNc2ccc3nc(-c4ccc(N)cc4)c(OC)n3n2)c1 (5 µM) | 0.845 | 0.891 | 0.987 | 0.92
21 | NC(=O)CCCCn1ccc(NC(N)=NCC(F)(F)F)n1 (5 µM) | 1.03 | 1.09 | 0.874 | 0.526
22 | CC(=O)NCCc1c(Cc2ccccc2)[nH]c2ccccc12 (5 µM) | 0.997 | 1.14 | 0.991 | 0.933

Record cards, as listed above. Order of values: cell viability (H4 GFP-LC3 [1]; 6 h)	cell viability (H4 GFP-LC3 [1]; 24 h)	ACBP immunofluorescence intensity (H4 GFP-LC3 [2]; 6 h)	ACBP immunofluorescence intensity (H4 GFP-LC3 [2]; 24 h)
Cc1cc2c(OCC(CNC(C)(C)C)OC(=O)c3ccccc3)cccc2[nH]1 (centres undefined) (5 µM) as listed: 0.704	0.998	0.877	0.531
Brc1c(NC2=NCCN2)ccc2nccnc12 (5 µM) as listed: 0.777	0.983	0.897	0.761

(cont.)

Row | Structure (SMILES) | cell viability (H4 GFP-LC3 [1]; 6 h) | cell viability (H4 GFP-LC3 [1]; 24 h) | ACBP immunofluorescence intensity (H4 GFP-LC3 [2]; 6 h) | ACBP immunofluorescence intensity (H4 GFP-LC3 [2]; 24 h)
23 | CNC[C@H](O)c1ccc(O)c(O)c1 (5 µM) | 0.757 | 0.752 | 0.88 | 0.411
24 | CN1CCCN(C(c2ccccc2)c2ccc(Cl)cc2)CC1 (centres undefined) (5 µM) | 0.99 | 1.17 | 0.864 | 0.77
25 | O=C(O)[C@@H]1C[C@H](CP(=O)(O)O)CCN1 (5 µM) | 1.01 | 1.18 | 0.969 | 0.836
26 | Nc1ncnc2c1ncn2[C@@H]1O[C@H](CO)[C@@H](O)[C@H]1O (5 µM) | 1.06 | 1.15 | 0.997 | 0.903
27 | CC(C[N+](C)(C)C)OC(N)=O (centres undefined) (5 µM) | 0.949 | 1.34 | 0.965 | 0.876
28 | NC[C@H](O)c1ccc(O)c(O)c1 (5 µM) | 1.21 | 0.946 | 0.555 | 0.905
29 | CCC(C)N(C)C(=O)c1cc2ccccc2c(-c2ccccc2Cl)n1 (centres undefined) (5 µM) | 0.871 | 1.24 | 0.969 | 0.658
30 | Cc1nccn1CC1CCc2c(c3ccccc3n2C)C1=O (centres undefined) (5 µM) | 0.872 | 1.04 | 0.678 | 0.421
31 | CN1CCc2ccccc2Cc2[nH]c3ccccc3c2CC1 (5 µM) | 0.864 | 1.24 | 0.899 | 0.753
32 | NC1CCN(c2cccc(Cl)n2)CC1 (5 µM) | 0.851 | 0.76 | 0.896 | 0.34
33 | C[C@@H](O)CCCCn1c(=O)c2c(ncn2C)n(C)c1=O (racemic) (5 µM) | 0.987 | 0.977 | 0.978 | 0.569
34 | Nc1ncnc2c1c(I)cn2[C@@H]1O[C@H](CO)[C@@H](O)[C@H]1O (5 µM) | 0.971 | 0.749 | 0.996 | 0.543
35 | COc1ccccc1N1CCN(CCN2C(=O)c3ccccc3C(C)(C)C2=O)CC1 (5 µM) | 0.935 | 1.02 | 0.877 | 0.463
36 | Nc1ncnc2c1ncn2[C@@H]1O[C@H](COP(=O)(O)OP(=O)(O)OP(=O)(O)O)[C@@H](O)[C@H]1O (5 µM) | 1.04 | 1 | 0.997 | 0.866
37 | CC(C)NCC(O)c1ccc(O)c(O)c1 (racemic) (5 µM) | 0.816 | 0.971 | 0.888 | 0.562
38 | O=C(O)C1=CCCN(CCON=C(c2ccccc2)c2ccccc2)C1 (5 µM) | 0.936 | 1.21 | 0.933 | 0.746
39 | NC1(C(=O)O)CC(C(=O)O)C(C(=O)O)C1 (centres undefined) (5 µM) | 1.01 | 1.34 | 0.875 | 0.524
40 | CNC1(C)C2CCC(C2)C1(C)C (centres undefined) (5 µM) | 0.985 | 1.39 | 0.999 | 0.858
41 | Cc1cccc(/C=C/c2ccccc2)n1 (5 µM) | 0.966 | 1.27 | 0.866 | 0.592
42 | NC1(C(=O)O)CCc2cc(C(=O)O)ccc21 (centres undefined) (5 µM) | 0.896 | 0.936 | 0.906 | 0.333
43 | CCOC(=O)C12CC1/C(=N/O)c1ccccc1O2 (centres undefined) (5 µM) | 1.02 | 1.08 | 0.943 | 0.673
44 | CC[N+](CC)(CCNC(=O)C(=O)NCC[N+](CC)(CC)Cc1ccccc1Cl)Cc1ccccc1Cl (5 µM) | 0.988 | 1.07 | 0.92 | 0.641

Row | Structure (SMILES) | cell viability (H4 GFP-LC3 [1]; 6 h) | cell viability (H4 GFP-LC3 [1]; 24 h) | ACBP immunofluorescence intensity (H4 GFP-LC3 [2]; 6 h) | ACBP immunofluorescence intensity (H4 GFP-LC3 [2]; 24 h)
45 | CC(CN1c2ccccc2Sc2ccccc21)N(C)C (centres undefined) (5 µM) | 1.03 | 0.817 | 0.968 | 0.635
46 | C[C@@](N)(C(=O)O)c1ccc(C(=O)O)cc1 (5 µM) | 1.03 | 1.32 | 0.8 | 0.437
47 | NCCc1ccc(O)c(O)c1 (5 µM) | 0.763 | 1.33 | 0.987 | 0.739
48 | Nc1ncnc2c1ncn2[C@@H]1O[C@H](CSCC[C@H](N)C(=O)O)[C@@H](O)[C@H]1O (5 µM) | 0.982 | 1.11 | 1 | 0.826
49 | CC(C)C[C@H](NC(=O)[C@H](Cc1ccccc1)NC(=O)CNC(=O)CNC(=O)[C@@H](N)Cc1ccc(O)cc1)C(=O)N[C@@H](CCCNC(=N)N)C(=O)N[C@@H](CCCNC(=N)N)C(=O)N[C@@H](CCC(N)=O)C(=O)N[C@@H](Cc1ccccc1)C(=O)N[C@@H](CCCCN)C(=O)N[C@H](C(=O)N[C@H](C(=O)N[C@H](C(=O)O)[C@@H](C)O)C(C)C)C(C)C (5 µM) | 1.15 | 1.11 | 0.898 | 0.697
50 | C=CCc1ccccc1OCC(O)CNC(C)C (centres undefined) (5 µM) | 0.565 | 0.869 | 0.924 | 0.29
51 | C[C@H](NC(=O)CNC(=O)[C@@H](NC(=O)[C@H](Cc1ccccc1)NC(=O)CNC(=O)CNC(=O)[C@@H](N)Cc1ccccc1)[C@@H](C)O)C(=O)N[C@@H](CCCN=C(N)N)C(=O)N[C@@H](CCCCN)C(=O)N[C@@H](CO)C(=O)N[C@@H](C)C(=O)N[C@@H](CCCN=C(N)N)C(=O)N[C@@H](CCCCN)C(N)=O (5 µM) | 1.09 | 1.22 | 0.832 | 0.888
52 | N=C(N)NC(=O)Cc1c(Cl)cccc1Cl (5 µM) | 0.736 | 0.871 | 0.927 | 0.456
53 | Cn1c(=O)c2nc[nH]c2n(C)c1=O (5 µM) | 0.995 | 1.05 | 0.938 | 0.763
54 | O=C(NCCNCC(O)COc1ccc(O)cc1)N1CCOCC1 (centres undefined) (5 µM) | 0.924 | 0.884 | 0.767 | 0.486
55 | C[C@H](C[C@H](N)C(=O)O)C(=O)O (5 µM) | 1.16 | 1.28 | 0.881 | 0.806
56 | CCN1CCC[C@H]1CNC(=O)c1cc(S(N)(=O)=O)ccc1OC (5 µM) | 0.896 | 1.12 | 0.67 | 0.567
57 | C#CCn1c(=O)c2c(ncn2C)n(C)c1=O (5 µM) | 0.999 | 1.05 | 0.963 | 0.633
58 | O=C(Nc1ccc(C(=O)Nc2ccc(C(=O)Nc3ccc(S(=O)(=O)O)c4cc(S(=O)(=O)O)cc(S(=O)(=O)O)c34)cc2)cc1)Nc1ccc(C(=O)Nc2ccc(C(=O)Nc3ccc(S(=O)(=O)O)c4cc(S(=O)(=O)O)cc(S(=O)(=O)O)c34)cc2)cc1 (5 µM) | 0.901 | 1.18 | 0.997 | 0.664
59 | O=C(O)c1cc(=O)c2c(Cl)cc(Cl)cc2[nH]1 (5 µM) | 1.13 | 1.25 | 0.848 | 0.719
60 | O=c1ccn(C2OC(COP(=O)(O)O)C(O)C2O)c(=O)[nH]1 (centres undefined) (5 µM) | 0.979 | 1.07 | 1 | 0.601
61 | COc1ccccc1N1CCN(CCN(C(=O)C2CCCCC2)c2ccccn2)CC1 (5 µM) | 0.898 | 1.13 | 0.876 | 0.638
62 | CCN(CC)CCOCCOC(=O)C1(c2ccccc2)CCCC1 (5 µM) | 1 | 1.21 | 0.947 | 0.845
63 | Cn1cc(C(F)(F)F)nc1-c1ccc(OCC(O)CNCCOc2ccc(O)c(C(N)=O)c2)cc1 (centres undefined) (5 µM) | 0.713 | 0.849 | 0.905 | 0.786
64 | CC(C)NCC(O)COc1ccccc1-n1cccc1 (centres undefined) (5 µM) | 0.85 | 0.767 | 0.947 | 0.703
65 | O=C(NCCCN1CCCCCC1)C(c1ccccc1)C1CCCCC1 (centres undefined) (5 µM) | 0.842 | 1.32 | 1 | 0.861
66 | Cn1cnc2c(ncn2[C@@H]2O[C@H](CO)[C@@H](O)[C@H]2O)c1=N (5 µM) | 0.966 | 0.858 | 0.997 | 0.612

Gathered by group, the entries above containing a COOH group.
Row | Structure (SMILES) | cell viability (H4 GFP-LC3 [1]; 6 h) | cell viability (H4 GFP-LC3 [1]; 24 h) | ACBP immunofluorescence intensity (H4 GFP-LC3 [2]; 6 h) | ACBP immunofluorescence intensity (H4 GFP-LC3 [2]; 24 h)
5 | O=C(O)C1CCCN(CCC=C(c2ccccc2)c2ccccc2)C1 (centres undefined) (5 µM) | 0.967 | 1.09 | 0.905 | 0.77
9 | NC(N)=NCCC[C@H](NC(=O)[C@@H](N)Cc1ccc(O)cc1)C(=O)O (5 µM) | 1.13 | 1.08 | 0.843 | 0.657
10 | O=C(O)c1cc(O)c2ccc(Cl)cc2n1 (5 µM) | 1.07 | 1.34 | 0.778 | 0.381
11 | CC(N)(C(=O)O)c1ccc(C(=O)O)cc1 (racemic) (5 µM) | 1.02 | 1.34 | 0.909 | 0.5
12 | NC1(C(=O)O)CC1 (5 µM) | 1.19 | 1.18 | 0.661 | 0.678
25 | O=C(O)[C@@H]1C[C@H](CP(=O)(O)O)CCN1 (5 µM) | 1.01 | 1.18 | 0.969 | 0.836
38 | O=C(O)C1=CCCN(CCON=C(c2ccccc2)c2ccccc2)C1 (5 µM) | 0.936 | 1.21 | 0.933 | 0.746
39 | NC1(C(=O)O)CC(C(=O)O)C(C(=O)O)C1 (centres undefined) (5 µM) | 1.01 | 1.34 | 0.875 | 0.524
42 | NC1(C(=O)O)CCc2cc(C(=O)O)ccc21 (centres undefined) (5 µM) | 0.896 | 0.936 | 0.906 | 0.333
46 | C[C@@](N)(C(=O)O)c1ccc(C(=O)O)cc1 (5 µM) | 1.03 | 1.32 | 0.8 | 0.437
48 | Nc1ncnc2c1ncn2[C@@H]1O[C@H](CSCC[C@H](N)C(=O)O)[C@@H](O)[C@H]1O (5 µM) | 0.982 | 1.11 | 1 | 0.826
49 | CC(C)C[C@H](NC(=O)[C@H](Cc1ccccc1)NC(=O)CNC(=O)CNC(=O)[C@@H](N)Cc1ccc(O)cc1)C(=O)N[C@@H](CCCNC(=N)N)C(=O)N[C@@H](CCCNC(=N)N)C(=O)N[C@@H](CCC(N)=O)C(=O)N[C@@H](Cc1ccccc1)C(=O)N[C@@H](CCCCN)C(=O)N[C@H](C(=O)N[C@H](C(=O)N[C@H](C(=O)O)[C@@H](C)O)C(C)C)C(C)C (5 µM) | 1.15 | 1.11 | 0.898 | 0.697
55 | C[C@H](C[C@H](N)C(=O)O)C(=O)O (5 µM) | 1.16 | 1.28 | 0.881 | 0.806
59 | O=C(O)c1cc(=O)c2c(Cl)cc(Cl)cc2[nH]1 (5 µM) | 1.13 | 1.25 | 0.848 | 0.719
